Substitutions are numbered along the chain they refer to. The entries are a selection whose mix differs from that of the whole data set. The calls were merged from several studies; some rest on single wells. The list shows a part of the results.

Chains of the proteins cited; added tags and fusions are not shown. Chains listed by the source or under a name are the forms on record and can include a tag or linker.
OR2M7, as listed by the source: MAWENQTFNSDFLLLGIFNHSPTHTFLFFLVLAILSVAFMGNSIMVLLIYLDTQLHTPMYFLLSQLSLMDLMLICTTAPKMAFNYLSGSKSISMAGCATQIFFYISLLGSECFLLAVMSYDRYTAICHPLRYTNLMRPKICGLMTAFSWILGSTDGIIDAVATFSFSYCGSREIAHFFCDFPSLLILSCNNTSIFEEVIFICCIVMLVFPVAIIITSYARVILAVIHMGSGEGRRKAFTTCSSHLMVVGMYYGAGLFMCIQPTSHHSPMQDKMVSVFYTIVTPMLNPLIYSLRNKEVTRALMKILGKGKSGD

Common to all, as to details: stereoisomer not certain
The target in assay [1] is T1, OR2M7 (Homo sapiens) (UniProt Q8NG81).
T1 sequence (whole entry): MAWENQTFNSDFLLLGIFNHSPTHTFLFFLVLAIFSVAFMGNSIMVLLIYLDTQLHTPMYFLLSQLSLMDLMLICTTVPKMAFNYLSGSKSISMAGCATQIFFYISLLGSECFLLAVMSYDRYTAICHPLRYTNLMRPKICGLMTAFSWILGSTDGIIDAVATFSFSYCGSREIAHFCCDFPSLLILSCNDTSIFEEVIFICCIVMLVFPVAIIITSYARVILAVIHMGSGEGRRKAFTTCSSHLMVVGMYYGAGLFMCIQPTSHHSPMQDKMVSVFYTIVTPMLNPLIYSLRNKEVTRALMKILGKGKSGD
In short, it runs like this: (§1)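 Each entry records the cell line, G-protein, co-transfected protein and tags used. Methods varied with the source, often transient luciferase assays in mammalian cell lines. A receptor–molecule pair is called responsive (active) if the original authors judged its signal statistically different from baseline and non-responsive (inactive) otherwise.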

Assay [2] concerns T2, OR2M7.
T2 sequence (whole entry): T1 sequence (whole entry) with F35L, V78A, C178F
In short, it runs like this:
as §1

The test system of assay [3] is T3, OR2M7.
T3 sequence (whole entry): T1 sequence (whole entry) with F35L, V78A, C178F, D191N
In short, it runs like this: as §1
The source holds these as a separate data set.

Assay [4] concerns T4, OR2S1.
T4 sequence (whole entry): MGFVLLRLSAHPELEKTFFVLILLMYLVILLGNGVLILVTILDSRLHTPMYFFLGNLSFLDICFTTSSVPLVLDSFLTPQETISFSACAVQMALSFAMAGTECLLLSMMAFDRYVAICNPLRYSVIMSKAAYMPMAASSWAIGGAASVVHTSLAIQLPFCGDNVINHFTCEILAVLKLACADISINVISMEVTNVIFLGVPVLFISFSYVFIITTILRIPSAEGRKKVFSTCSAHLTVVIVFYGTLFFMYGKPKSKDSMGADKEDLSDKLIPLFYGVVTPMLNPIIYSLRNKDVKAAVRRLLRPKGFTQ
In outline:
as §1

Assay [5] concerns the target T5, OR2T10 (Homo sapiens) (UniProt Q8NGZ9).
T5 sequence (whole entry): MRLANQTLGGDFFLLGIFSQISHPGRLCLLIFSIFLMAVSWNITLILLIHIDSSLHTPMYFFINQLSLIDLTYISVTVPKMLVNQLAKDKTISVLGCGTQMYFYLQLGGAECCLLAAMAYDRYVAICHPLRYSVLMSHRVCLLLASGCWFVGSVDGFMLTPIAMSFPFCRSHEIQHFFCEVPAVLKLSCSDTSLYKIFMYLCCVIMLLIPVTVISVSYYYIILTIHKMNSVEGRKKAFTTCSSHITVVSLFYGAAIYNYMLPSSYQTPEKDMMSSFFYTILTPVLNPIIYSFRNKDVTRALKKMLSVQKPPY
In short, it runs like this: as §1

In the case of `CC(=O)c1ccccc1`, the “odorant receptor agonist call” value in assay [1], in assay [2], in assay [3], in assay [4] and in assay [5] was “inactive” each time.

Take `CCCCO`: the “odorant receptor agonist call” value in assay [1], in assay [2], in assay [3], in assay [4] and in assay [5] was “inactive” throughout.

As for `CC(C)CC(=O)O`, the “odorant receptor agonist call” value in assay [1], in assay [2], in assay [3], in assay [4] and in assay [5] was “inactive” in each case.

For `CCCCCCCCCCC=O`, the “odorant receptor agonist call” value in assay [1], in assay [2], in assay [3], in assay [4] and in assay [5] was “inactive” each time.

On to `CC(=O)OCC=C(C)CCC=C(C)C`, for which the “odorant receptor agonist call” value in assay [1], in assay [2], in assay [3], in assay [4] and in assay [5] was “inactive” throughout.

As to `C=C(C)C1CC=C(C)C(=O)C1` (configuration not stated), the “odorant receptor agonist call” value in assay [1] was “inactive”.

With `CCCCCCC=O`, the “odorant receptor agonist call” value in assay [1] is “inactive”.

For the compound `CC(=O)OC1CC2CCC1(C)C2(C)C` (configuration not stated), the “odorant receptor agonist call” value in assay [1], in assay [2], in assay [3], in assay [4] and in assay [5] was “inactive” throughout.

With `CC(=O)C(C)=O`, the “odorant receptor agonist call” value in assay [1], in assay [2], in assay [3], in assay [4] and in assay [5] was “inactive” in each case.

Take `COc1cc(C)ccc1O`: the “odorant receptor agonist call” value in assay [1] is “active”. For the same compound, the “odorant receptor agonist call” value in assay [2], in assay [3], in assay [4] and in assay [5] was “inactive” in each case.

`C=CCc1ccc(OC(C)=O)c(OC)c1`: the “odorant receptor agonist call” value in assay [1], in assay [2], in assay [3], in assay [4] and in assay [5] was “inactive” in each case.

Take `O=CCc1ccccc1`: the “odorant receptor agonist call” value in assay [1], in assay [2], in assay [3], in assay [4] and in assay [5] was “inactive” in each case.

On to `CCCCCOC(C)=O`, for which the “odorant receptor agonist call” value in assay [1], in assay [2], in assay [3] and in assay [4] was “inactive” in each case. In assay [5], the “odorant receptor agonist call” value was “active”.

Regarding `CCCCCC(=O)O`, the “odorant receptor agonist call” value in assay [1], in assay [2], in assay [3], in assay [4] and in assay [5] was “inactive” throughout.

As to `CCCCCCCOC(C)=O`, the “odorant receptor agonist call” value in assay [1], in assay [2], in assay [3], in assay [4] and in assay [5] was “inactive” throughout.

Consider `CCC=CCCO`, for which the “odorant receptor agonist call” value in assay [1], in assay [2], in assay [3], in assay [4] and in assay [5] was “inactive” in each case.

In the case of `C=CC(C)(O)CCC=C(C)C` (configuration not stated), the “odorant receptor agonist call” value in assay [1], in assay [2], in assay [3], in assay [4] and in assay [5] was “inactive” each time.

For `O=C1CCCCCCCCCCCCCCO1`, the “odorant receptor agonist call” value in assay [1], in assay [2], in assay [3], in assay [4] and in assay [5] was “inactive” in each case.

As for `c1ccc(Oc2ccccc2)cc1`, the “odorant receptor agonist call” value in assay [1], in assay [2], in assay [3], in assay [4] and in assay [5] was “inactive” each time.

Consider `COC(=O)c1ccccc1O`, for which the “odorant receptor agonist call” value in assay [1], in assay [2], in assay [3], in assay [4] and in assay [5] was “inactive” in each case.

Turning to `CC1=NC(C)SC1C` (configuration not stated), the “odorant receptor agonist call” value in assay [1], in assay [2], in assay [3], in assay [4] and in assay [5] was “inactive” in each case.

Consider `c1cnccn1`, for which the “odorant receptor agonist call” value in assay [1], in assay [2], in assay [3], in assay [4] and in assay [5] was “inactive” each time.

`CC12CCC(CC1)C(C)(C)O2`: the “odorant receptor agonist call” value in assay [1], in assay [2], in assay [3], in assay [4] and in assay [5] was “inactive” throughout.

In the case of `CCCCCCCC=O`, the “odorant receptor agonist call” value in assay [1], in assay [2], in assay [3], in assay [4] and in assay [5] was “inactive” each time.

Consider `CC1COCc2cc3c(cc21)C(C)(C)C(C)C3(C)C` (configuration not stated), for which the “odorant receptor agonist call” value in assay [1], in assay [2], in assay [3], in assay [4] and in assay [5] was “active” each time.

As to `CC(C)(C)c1ccc(CCC=O)cc1`, the “odorant receptor agonist call” value in assay [1], in assay [2], in assay [3], in assay [4] and in assay [5] was “inactive” throughout.

On to `O=C1CCCCCCCCCCCC(=O)OCCO1`, for which the “odorant receptor agonist call” value in assay [1], in assay [3], in assay [4] and in assay [5] was “inactive” in each case. In addition, the “odorant receptor agonist call” value in assay [2] was “active”.

In the case of `COC(=O)c1ccccc1`, the “odorant receptor agonist call” value in assay [1], in assay [2], in assay [3] and in assay [4] was “inactive” in each case. In addition, the “odorant receptor agonist call” value in assay [5] was “active”.

Regarding `CCCCCC(C)=O`, the “odorant receptor agonist call” value in assay [1], in assay [2], in assay [3], in assay [4] and in assay [5] was “inactive” in each case.

With `COc1ccccc1O`, the “odorant receptor agonist call” value in assay [1], in assay [2], in assay [3], in assay [4] and in assay [5] was “inactive” each time.

For `CC(C)C=O`, the “odorant receptor agonist call” value in assay [1], in assay [2], in assay [3], in assay [4] and in assay [5] was “inactive” in each case.

On to `C=CCc1ccc(OC)c(OC)c1`, for which the “odorant receptor agonist call” value in assay [1], in assay [2], in assay [3], in assay [4] and in assay [5] was “inactive” each time.

As for `CC1CCC(C(C)C)C(O)C1` (configuration not stated), the “odorant receptor agonist call” value in assay [1], in assay [2], in assay [3] and in assay [5] was “inactive” throughout. Besides, the “odorant receptor agonist call” value in assay [4] is “active”.

Regarding `CC1=CCC(C(C)(C)O)CC1` (configuration not stated), the “odorant receptor agonist call” value in assay [1], in assay [2], in assay [3], in assay [4] and in assay [5] was “inactive” throughout.

With `O=C1CCCCC1`, the “odorant receptor agonist call” value in assay [1], in assay [2], in assay [3], in assay [4] and in assay [5] was “inactive” throughout.

On to `CCCCCCOC(=O)CCC`, for which the “odorant receptor agonist call” value in assay [1], in assay [2], in assay [3], in assay [4] and in assay [5] was “inactive” each time.

As to `CCCCCCCCOC(C)=O`, the “odorant receptor agonist call” value in assay [1], in assay [2], in assay [3], in assay [4] and in assay [5] was “inactive” in each case.

The record behind these values is the M2OR odorant receptor database.
